Data as given in PubChem BioAssay AID504786 (Drosophila RNAi Screening Center, 2011)

Screen: 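Knock-downs reducing HIF reporter induction by the iron chelator DFO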 (primary screen)
Cells: Drosophila S2 cells with a stable HIF luciferase reporter
Reagents: long dsRNA against Drosophila genes, about 0.2 µg dsRNA per well of a 384-well plate
Duration: three days of knock-down, then 20 h of DFO before reading
Conditions: desferrioxamine (DFO) at 100 µM, an iron chelator that mimics hypoxia, for 20 h
Read-out: 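HIF reporter luminescence in cells given 100 µM DFO for 20 h, using the mouse ldh-a hypoxia-response element, scored as per-plate z-scores; higher means greater loss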
Scale: z-score: higher = stronger loss of HIF reporter signal
The deposit covers about 21,000 reagents; shown is an unselected part of those that have a named target and a result. 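Primary screen; positive scores mean lost reporter signal, so the sign may be inverted from the usual convention.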 Reagents against one gene are numbered here. A plus sign joins genes that one reagent is predicted to hit.

| gene | reagent | z-score, replicate 1 | z-score, replicate 2 |
| --- | --- | --- | --- |
| CG4101 | 1 | -0.1 | -0.8 |
| PlexB (Plexin B) | 1 | -0.3 | -0.3 |
| zormin | 1 | -0.3 | 0 |
| zormin | 2 | -0.2 | -0.4 |
| zormin | 3 | -0.5 | -0.7 |
| zormin | 4 | -0.3 | -0.4 |
| zormin | 5 | -0.3 | -0.7 |
| zormin | 6 | -0.3 | -0.4 |
| Cyp310a1 (Cytochrome P450 310a1) | 1 | -0.3 | -0.3 |
| Gadd45 (Growth arrest and DNA damage-inducible 45) | 1 | -0.3 | -0.4 |
| Nmdmc (NAD-dependent methylenetetrahydrofolate dehydrogenase) | 1 | -0.3 | -0.3 |
| CG11436 | 1 | -0.1 | 0.5 |
| CG11710 | 1 | -0.4 | -0.6 |
| opa (odd paired) | 1 | -0.1 | -0.1 |
| CG13039 | 1 | -0.3 | -0.4 |
| hyx (hyrax) | 1 | 2 | 2.7 |
| CG13377 | 1 | -0.4 | 0 |
| sinu (sinuous) | 1 | -0.6 | -0.4 |
| CG44014 | 1 | -0.1 | -0.2 |
| mRpL32 (mitochondrial ribosomal protein L32) | 1 | 2.1 | 1.2 |
| CR31700 (pseudo) | 1 | 0 | -0.1 |
| FIG4 (FIG4 phosphoinositide 5-phosphatase) | 1 | -0.2 | 0 |
| CG13449 | 1 | -0.1 | 0.1 |
| Cdc16 (Cell division cycle 16) | 1 | -0.4 | -0.4 |
| Obp83ef (Odorant-binding protein 83ef) | 1 | -0.3 | -0.4 |
| mtTFB2 (mitochondrial transcription factor B2) | 1 | -0.3 | 0.2 |
| CG17343 | 1 | -0.3 | -0.6 |
| CG15803 | 1 | -0.2 | -0.2 |
| CG15699 (retired record) | 1 | -0.3 | -0.4 |
| IntS6 (Integrator 6) | 1 | 0.7 | 0.1 |
| Xbp1 (X box binding protein-1) | 1 | -0.8 | -0.4 |
| CG31111 | 1 | -0.5 | -0.5 |

Only “z-score, replicate 2”, for 3 of the entries above:
CG13377	0
sinu (sinuous)	-0.4
CG44014	-0.2

Next records follow:
| gene | reagent | z-score, replicate 1 | z-score, replicate 2 |
| --- | --- | --- | --- |
| CG7631 | 1 | -0.3 | -0.2 |
| fit (female-specific independent of transformer) | 1 | 0.1 | 0 |
| dpr3 (defective proboscis extension response 3) | 1 | -0.1 | 0.1 |
| dpr3 (defective proboscis extension response 3) | 2 | 0 | 0.7 |
| CycB (Cyclin B) | 1 | 0.1 | 0.1 |
| spri (sprint) | 1 | -0.1 | -0.7 |
| spri (sprint) | 2 | -0.3 | -0.9 |
| spri (sprint) | 3 | -0.1 | -0.5 |
| spri (sprint) | 4 | -0.3 | -0.5 |
| spri (sprint) | 5 | -0.2 | -0.5 |
| spri (sprint) | 6 | -0.3 | -0.2 |
| CG11400 | 1 | -0.3 | -0.3 |
| Ama (Amalgam) | 1 | -0.5 | -0.7 |
| tfc (triforce) | 1 | -0.2 | -0.4 |
| tfc (triforce) | 2 | 6.3 | 2.4 |
| tfc (triforce) | 3 | 0 | 0 |
| CG7156 | 1 | -0.3 | -0.3 |
| Rcd2 (Reduction in Cnn dots 2) | 1 | -0.3 | 0.1 |
| CG40053 (retired record) | 1 | -0.4 | -0.3 |
| CG9344 | 1 | -0.2 | 0 |
| CG18139 (retired record) + Hmx | 1 | 0.1 | 0.8 |
| CG4080 | 1 | -0.2 | -0.6 |
| Gpb5 (Glycoprotein hormone beta 5) | 1 | -0.5 | -0.4 |
| CG15719 | 1 | 0 | -0.2 |
